# Results published in the supplement of paper PMC12819154, “High-throughput peptide-centric local stability assay extends protein–ligand identification to membrane proteins, tissues and bacteria” (Nature Structural & Molecular Biology, 2025).
# Chains of the proteins cited; added tags and fusions are not shown. Lines headed by an entry give the natural chain unless they say otherwise; changes in a name come on top.
# UniProt Q5TC12: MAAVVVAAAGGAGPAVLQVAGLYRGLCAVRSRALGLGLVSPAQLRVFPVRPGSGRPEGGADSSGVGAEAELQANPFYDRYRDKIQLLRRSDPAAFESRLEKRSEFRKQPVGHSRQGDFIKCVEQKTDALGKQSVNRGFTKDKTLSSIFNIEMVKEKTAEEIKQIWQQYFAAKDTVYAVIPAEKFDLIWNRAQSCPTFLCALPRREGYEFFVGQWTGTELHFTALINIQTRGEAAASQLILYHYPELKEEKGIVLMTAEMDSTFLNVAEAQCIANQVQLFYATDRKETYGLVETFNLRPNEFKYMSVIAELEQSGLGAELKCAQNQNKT
# UniProt Q5MNZ6: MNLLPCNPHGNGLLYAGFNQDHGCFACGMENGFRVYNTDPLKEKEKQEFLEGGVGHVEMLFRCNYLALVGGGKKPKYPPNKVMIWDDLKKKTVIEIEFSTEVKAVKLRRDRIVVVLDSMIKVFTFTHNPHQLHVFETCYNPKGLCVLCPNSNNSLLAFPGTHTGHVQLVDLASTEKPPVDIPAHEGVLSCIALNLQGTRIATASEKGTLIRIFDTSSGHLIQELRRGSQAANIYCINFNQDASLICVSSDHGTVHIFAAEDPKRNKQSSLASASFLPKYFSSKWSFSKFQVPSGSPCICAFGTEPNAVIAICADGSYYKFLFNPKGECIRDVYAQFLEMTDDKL
# UniProt Q5VT52: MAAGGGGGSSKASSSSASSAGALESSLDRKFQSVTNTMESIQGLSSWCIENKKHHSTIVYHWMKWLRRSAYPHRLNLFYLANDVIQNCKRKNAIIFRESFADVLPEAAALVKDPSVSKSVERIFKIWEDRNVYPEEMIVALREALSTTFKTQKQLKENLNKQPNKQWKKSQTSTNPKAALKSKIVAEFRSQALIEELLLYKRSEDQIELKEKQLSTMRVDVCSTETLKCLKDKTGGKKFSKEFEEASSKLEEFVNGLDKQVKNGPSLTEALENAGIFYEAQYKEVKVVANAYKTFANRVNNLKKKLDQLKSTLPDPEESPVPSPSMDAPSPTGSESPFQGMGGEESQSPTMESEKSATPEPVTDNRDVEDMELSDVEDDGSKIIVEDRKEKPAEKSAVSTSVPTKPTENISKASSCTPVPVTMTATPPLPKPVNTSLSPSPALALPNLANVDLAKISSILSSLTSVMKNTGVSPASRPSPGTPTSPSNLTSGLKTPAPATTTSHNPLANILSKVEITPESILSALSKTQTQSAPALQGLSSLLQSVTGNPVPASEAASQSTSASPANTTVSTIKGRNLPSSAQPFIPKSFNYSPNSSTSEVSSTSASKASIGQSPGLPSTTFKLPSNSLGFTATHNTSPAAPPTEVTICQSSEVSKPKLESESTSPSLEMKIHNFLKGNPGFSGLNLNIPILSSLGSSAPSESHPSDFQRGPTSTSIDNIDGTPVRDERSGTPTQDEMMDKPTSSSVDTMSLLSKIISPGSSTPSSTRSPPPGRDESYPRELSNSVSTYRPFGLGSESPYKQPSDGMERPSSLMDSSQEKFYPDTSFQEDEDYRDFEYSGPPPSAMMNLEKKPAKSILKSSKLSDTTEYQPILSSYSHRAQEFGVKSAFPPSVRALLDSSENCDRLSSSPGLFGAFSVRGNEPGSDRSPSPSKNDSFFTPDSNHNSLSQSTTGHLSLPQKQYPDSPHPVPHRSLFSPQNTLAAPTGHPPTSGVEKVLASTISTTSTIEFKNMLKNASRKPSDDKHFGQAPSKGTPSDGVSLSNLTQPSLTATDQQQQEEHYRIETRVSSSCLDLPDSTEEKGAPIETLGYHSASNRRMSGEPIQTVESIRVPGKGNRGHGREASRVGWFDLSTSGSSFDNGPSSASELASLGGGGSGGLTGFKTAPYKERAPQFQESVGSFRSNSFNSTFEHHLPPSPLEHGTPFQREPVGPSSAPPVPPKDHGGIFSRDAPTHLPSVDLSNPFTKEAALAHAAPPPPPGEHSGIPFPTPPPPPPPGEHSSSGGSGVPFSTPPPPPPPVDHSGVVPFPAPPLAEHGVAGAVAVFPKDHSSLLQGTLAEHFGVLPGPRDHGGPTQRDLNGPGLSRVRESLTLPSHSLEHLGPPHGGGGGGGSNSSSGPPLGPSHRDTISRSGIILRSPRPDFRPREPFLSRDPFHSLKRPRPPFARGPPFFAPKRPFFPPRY
# UniProt Q5VWZ2: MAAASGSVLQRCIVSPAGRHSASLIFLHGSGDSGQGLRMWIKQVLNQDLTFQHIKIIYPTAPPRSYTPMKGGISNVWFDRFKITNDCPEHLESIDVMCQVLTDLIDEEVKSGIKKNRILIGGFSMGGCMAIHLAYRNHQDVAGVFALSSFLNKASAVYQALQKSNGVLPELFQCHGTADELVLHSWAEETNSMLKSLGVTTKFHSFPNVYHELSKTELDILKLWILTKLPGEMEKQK
# UniProt Q4G0S7: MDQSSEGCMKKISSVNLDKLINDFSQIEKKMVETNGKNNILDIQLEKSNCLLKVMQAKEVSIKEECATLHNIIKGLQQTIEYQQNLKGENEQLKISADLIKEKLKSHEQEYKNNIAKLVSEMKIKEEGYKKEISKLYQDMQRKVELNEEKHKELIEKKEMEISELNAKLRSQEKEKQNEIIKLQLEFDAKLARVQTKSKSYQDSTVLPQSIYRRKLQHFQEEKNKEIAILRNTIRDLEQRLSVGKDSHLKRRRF
# UniProt Q5JTW2: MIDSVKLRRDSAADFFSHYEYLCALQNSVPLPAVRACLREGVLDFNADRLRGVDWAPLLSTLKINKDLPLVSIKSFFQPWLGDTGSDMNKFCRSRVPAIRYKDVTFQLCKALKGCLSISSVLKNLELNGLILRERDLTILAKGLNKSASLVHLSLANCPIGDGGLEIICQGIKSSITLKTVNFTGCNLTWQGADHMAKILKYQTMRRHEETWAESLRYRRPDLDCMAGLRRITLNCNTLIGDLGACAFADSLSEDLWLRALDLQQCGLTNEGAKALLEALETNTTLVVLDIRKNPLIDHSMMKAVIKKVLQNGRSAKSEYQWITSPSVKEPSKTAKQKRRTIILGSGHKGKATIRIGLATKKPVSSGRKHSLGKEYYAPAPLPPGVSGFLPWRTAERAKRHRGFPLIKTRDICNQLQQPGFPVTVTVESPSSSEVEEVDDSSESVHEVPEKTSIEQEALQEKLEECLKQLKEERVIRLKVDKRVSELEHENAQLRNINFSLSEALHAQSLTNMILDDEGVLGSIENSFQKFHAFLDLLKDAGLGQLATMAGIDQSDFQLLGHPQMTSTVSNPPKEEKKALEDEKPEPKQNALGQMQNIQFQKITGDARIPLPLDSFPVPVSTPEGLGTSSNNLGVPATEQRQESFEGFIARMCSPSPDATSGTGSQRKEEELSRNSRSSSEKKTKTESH
# UniProt Q5VUG0: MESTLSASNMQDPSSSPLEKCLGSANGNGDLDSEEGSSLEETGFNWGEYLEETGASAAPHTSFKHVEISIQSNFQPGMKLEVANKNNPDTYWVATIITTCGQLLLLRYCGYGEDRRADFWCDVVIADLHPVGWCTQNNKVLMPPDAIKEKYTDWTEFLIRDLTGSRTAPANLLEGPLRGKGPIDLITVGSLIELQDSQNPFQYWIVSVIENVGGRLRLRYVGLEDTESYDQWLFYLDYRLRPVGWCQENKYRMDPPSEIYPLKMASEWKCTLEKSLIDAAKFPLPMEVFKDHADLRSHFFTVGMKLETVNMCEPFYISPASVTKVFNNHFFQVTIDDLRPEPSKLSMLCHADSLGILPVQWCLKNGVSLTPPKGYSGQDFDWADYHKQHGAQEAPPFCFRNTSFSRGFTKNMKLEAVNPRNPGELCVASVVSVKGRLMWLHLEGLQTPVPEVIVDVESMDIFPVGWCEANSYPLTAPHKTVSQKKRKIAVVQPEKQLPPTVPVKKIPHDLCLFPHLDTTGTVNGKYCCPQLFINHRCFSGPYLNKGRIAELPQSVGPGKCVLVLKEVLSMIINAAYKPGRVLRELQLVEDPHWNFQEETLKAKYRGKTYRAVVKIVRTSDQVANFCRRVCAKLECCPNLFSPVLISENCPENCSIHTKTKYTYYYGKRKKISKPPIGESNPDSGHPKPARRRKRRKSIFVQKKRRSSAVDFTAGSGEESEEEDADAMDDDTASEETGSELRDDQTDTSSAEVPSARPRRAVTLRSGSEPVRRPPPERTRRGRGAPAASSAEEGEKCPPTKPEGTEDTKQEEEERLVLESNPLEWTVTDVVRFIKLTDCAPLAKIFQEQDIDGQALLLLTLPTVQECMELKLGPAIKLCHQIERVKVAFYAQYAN
# UniProt Q5VXD3: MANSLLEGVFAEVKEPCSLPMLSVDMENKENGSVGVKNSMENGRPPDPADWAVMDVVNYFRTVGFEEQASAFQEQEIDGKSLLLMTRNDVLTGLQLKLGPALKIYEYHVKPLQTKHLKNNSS
# UniProt Q5EBL8: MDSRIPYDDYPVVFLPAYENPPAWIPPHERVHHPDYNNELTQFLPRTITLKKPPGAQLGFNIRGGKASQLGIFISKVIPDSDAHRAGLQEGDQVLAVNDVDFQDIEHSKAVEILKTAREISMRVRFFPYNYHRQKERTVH
# UniProt Q5JSH3: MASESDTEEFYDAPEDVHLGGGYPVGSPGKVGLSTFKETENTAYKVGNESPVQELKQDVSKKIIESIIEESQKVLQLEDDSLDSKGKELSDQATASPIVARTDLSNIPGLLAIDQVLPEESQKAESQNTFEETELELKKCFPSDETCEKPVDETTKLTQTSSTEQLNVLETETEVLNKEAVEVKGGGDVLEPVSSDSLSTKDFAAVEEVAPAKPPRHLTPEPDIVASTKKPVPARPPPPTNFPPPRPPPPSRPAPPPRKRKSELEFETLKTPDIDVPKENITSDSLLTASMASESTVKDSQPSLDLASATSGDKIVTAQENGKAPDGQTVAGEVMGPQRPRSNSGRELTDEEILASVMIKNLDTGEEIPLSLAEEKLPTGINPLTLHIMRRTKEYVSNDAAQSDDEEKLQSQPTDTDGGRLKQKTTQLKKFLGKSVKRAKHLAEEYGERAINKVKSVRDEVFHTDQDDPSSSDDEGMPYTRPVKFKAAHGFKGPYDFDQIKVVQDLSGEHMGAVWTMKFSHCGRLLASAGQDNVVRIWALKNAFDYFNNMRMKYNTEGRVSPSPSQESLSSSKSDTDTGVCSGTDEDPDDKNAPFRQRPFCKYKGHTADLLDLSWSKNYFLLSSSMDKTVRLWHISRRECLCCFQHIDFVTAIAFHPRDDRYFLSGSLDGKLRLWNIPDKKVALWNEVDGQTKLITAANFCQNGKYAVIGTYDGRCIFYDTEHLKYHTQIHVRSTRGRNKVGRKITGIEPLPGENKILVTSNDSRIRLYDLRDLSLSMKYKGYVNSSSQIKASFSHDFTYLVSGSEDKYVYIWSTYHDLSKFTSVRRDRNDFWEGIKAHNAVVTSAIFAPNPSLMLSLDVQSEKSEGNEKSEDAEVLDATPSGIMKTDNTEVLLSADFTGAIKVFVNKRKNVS
# UniProt Q5T5X7: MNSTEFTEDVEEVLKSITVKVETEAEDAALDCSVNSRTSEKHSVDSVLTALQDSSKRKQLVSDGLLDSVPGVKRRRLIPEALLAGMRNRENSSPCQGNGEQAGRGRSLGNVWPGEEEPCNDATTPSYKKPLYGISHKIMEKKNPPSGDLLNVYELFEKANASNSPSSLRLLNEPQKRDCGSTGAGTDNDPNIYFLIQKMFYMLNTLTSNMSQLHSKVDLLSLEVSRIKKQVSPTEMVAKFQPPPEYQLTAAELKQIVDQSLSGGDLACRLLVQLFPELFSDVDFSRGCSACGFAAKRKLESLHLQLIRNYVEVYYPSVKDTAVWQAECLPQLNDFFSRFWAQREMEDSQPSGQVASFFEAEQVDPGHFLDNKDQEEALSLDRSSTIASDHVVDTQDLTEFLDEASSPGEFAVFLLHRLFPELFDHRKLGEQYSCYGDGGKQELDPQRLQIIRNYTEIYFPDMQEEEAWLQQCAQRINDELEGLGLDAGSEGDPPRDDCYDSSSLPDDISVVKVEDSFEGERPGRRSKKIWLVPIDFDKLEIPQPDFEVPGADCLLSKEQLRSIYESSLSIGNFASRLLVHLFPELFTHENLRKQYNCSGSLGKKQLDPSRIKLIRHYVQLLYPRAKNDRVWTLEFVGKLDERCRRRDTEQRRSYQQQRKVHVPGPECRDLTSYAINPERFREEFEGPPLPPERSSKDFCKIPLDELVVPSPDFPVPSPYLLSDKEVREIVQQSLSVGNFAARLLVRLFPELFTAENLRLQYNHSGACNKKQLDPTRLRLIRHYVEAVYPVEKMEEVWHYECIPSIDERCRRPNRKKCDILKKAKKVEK
# UniProt Q53QV2: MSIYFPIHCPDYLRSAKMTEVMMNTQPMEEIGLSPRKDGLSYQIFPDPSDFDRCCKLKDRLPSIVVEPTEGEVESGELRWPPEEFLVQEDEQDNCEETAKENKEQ
# UniProt Q5T1C6: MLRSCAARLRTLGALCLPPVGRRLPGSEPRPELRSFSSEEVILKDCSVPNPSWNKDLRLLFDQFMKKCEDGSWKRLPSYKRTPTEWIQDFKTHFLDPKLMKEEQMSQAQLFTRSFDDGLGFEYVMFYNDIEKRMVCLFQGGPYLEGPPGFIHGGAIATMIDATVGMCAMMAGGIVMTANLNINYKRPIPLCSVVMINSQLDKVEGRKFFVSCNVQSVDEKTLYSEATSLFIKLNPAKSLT
# Some of the results follow. Small differences around the control level are noise.
# Compound: CN[C@@H]1C[C@H]2O[C@@](C)([C@@H]1OC)n1c3ccccc3c3c4c(c5c6ccccc6n2c5c31)C(=O)NC4 [staurosporine]
# Assay: log2 fold change of tryptic peptide abundance, ligand vs vehicle (limited proteolysis) (log2 ratio); higher = more trypsin-susceptible (destabilized)
# Settings: ligand concentration: 20 uM; sample: K562 cleared lysate; digestion: 4 min, 22 C (HT-PELSA RT4min, Orbitrap Astral)
row,Target,log2 fold change
1,"ATPAF1 (peptide sequence: KQPVGHSR, peptide start residue: 107) (UniProt Q5TC12)",0.241
2,"UniProt Q5VW32 (peptide sequence: GPGPTVKPSGHLFFR, peptide start residue: 296)",0.415
3,"UniProt Q5MNZ6 (peptide sequence: QSSLASASFLPK, peptide start residue: 267)",-0.0672
4,"CRY2 (peptide sequence: KLEAAEEPPGEELSKR, peptide start residue: 562) (UniProt Q49AN0)",0.471
5,"UniProt Q5TYW1 (peptide sequence: IHTGEKPYECNECGR, peptide start residue: 383)",0.0762
6,"RPRD2 (peptide sequence: EPVGPSSAPPVPPKDHGGIFSR, peptide start residue: 1208) (UniProt Q5VT52)",0.465
7,"LYPLAL1 (peptide sequence: CIVSPAGR, peptide start residue: 12) (UniProt Q5VWZ2)",-0.172
8,"USP39 (peptide sequence: AHVSPHEMLQAVVLCSK, peptide start residue: 292) (UniProt Q53GS9)",0.28
9,"CCDC152 (peptide sequence: LINDFSQIEKK, peptide start residue: 20) (UniProt Q4G0S7)",0.0997
10,"HABP4 (peptide sequence: YRDDMVKDDYEDDSHVFR, peptide start residue: 330) (UniProt Q5JVS0)",-0.637
11,"TJAP1 (peptide sequence: MGVHHLHR, peptide start residue: 535) (UniProt Q5JTD0)",0.572
12,"UniProt Q5TEJ8 (peptide sequence: IPSTLEVDVEDVTASSR, peptide start residue: 223)",-0.151
13,"VPS13D (peptide sequence: VPVVFTQHGVAEPR, peptide start residue: 3525) (UniProt Q5THJ4)",0.588
14,"HSP90AB4P (peptide sequence: SLIINTFYSNK, peptide start residue: 2) (UniProt Q58FF6)",-0.205
15,"CEP78 (peptide sequence: QESFEGFIAR, peptide start residue: 642) (UniProt Q5JTW2)",-0.26
16,"COX19 (peptide sequence: STAMNFGTK, peptide start residue: 2) (UniProt Q49B96)",-0.162
17,"UniProt Q4G0N4 (peptide sequence: SSGLNLCTGTGSK, peptide start residue: 305)",-0.219
18,"UniProt Q5VUG0 (peptide sequence: LTDCAPLAK, peptide start residue: 835)",0.0757
19,"RNF20 (peptide sequence: AVEEQIEYLQKK, peptide start residue: 706) (UniProt Q5VTR2)",-1.12
20,"UniProt Q5VXD3 (peptide sequence: IYEYHVKPLQTK, peptide start residue: 104)",0.371
21,"PDZD11 (peptide sequence: ASQLGIFISK, peptide start residue: 67) (UniProt Q5EBL8)",0.171
22,"DOP1A (peptide sequence: TLGWEPGHLLLTICTVR, peptide start residue: 2375) (UniProt Q5JWR5)",-0.328
23,"WDR44 (peptide sequence: AAHGFKGPYDFDQIK, peptide start residue: 487) (UniProt Q5JSH3)",-0.724
24,"BEND3 (peptide sequence: KNPPSGDLLNVYELFEK, peptide start residue: 142) (UniProt Q5T5X7)",0.493
25,"ARHGAP21 (peptide sequence: FKSDSGSLGDAKNEK, peptide start residue: 1711) (UniProt Q5T5U3)",-0.549
26,"LBH (peptide sequence: KDGLSYQIFPDPSDFDRCCK, peptide start residue: 37) (UniProt Q53QV2)",-0.711
27,"DDX59 (peptide sequence: QTQNDLVTGANLMDIIR, peptide start residue: 594) (UniProt Q5T1V6)",-0.512
28,"THEM4 (peptide sequence: TPTEWIQDFK, peptide start residue: 82) (UniProt Q5T1C6)",-0.447

# Reprinted from the results shown for reference:
row,Target,log2 fold change
8,"USP39 (peptide sequence: AHVSPHEMLQAVVLCSK, peptide start residue: 292) (UniProt Q53GS9)",0.28
9,"CCDC152 (peptide sequence: LINDFSQIEKK, peptide start residue: 20) (UniProt Q4G0S7)",0.0997
